Data as given in PubChem BioAssay AID504808 (Drosophila RNAi Screening Center, 2011)

Purpose: 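Fly genes required to hold E2F transcription in check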 (primary screen)
Cell system: Drosophila S2 cells
Reagent: long dsRNA against Drosophila genes
Measured: 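Firefly luciferase driven by E2F sites, normalised to Renilla luciferase on the same minimal promoter, measured by plate reader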
Direction: E2F firefly: higher = more E2F reporter activity; Renilla normaliser: higher = more normaliser reporter signal
Active means: 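a knock-down counted as active when the firefly/Renilla E2F signal rose above 50%, a threshold chosen arbitrarily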
In all, the deposit lists about 21,000 reagents; shown is a random part of those with a known target gene and a result. Of all reagents, 18 (0.084%) were called active. 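Raw counts without plate normalisation, one of two replicates; the ratio scores behind the calls were not deposited.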 A number with no mark means an inactive call. A plus sign joins genes that one reagent is predicted to hit. Not stated in the record: the amount of reagent, the time to read-out.

The opening 3 entries as a preview:
osa (GeneID 42130) [DRSC17022] | E2F firefly, rep 1: 66247; Renilla normaliser, rep 1: 4060
CG12075 (GeneID 31815) [DRSC17801] | E2F firefly, rep 1: 7570; Renilla normaliser, rep 1: 924
CG5276 (GeneID 41373) [DRSC15759] | E2F firefly, rep 1: 1.58e5; Renilla normaliser, rep 1: 6847

Results, repeating the preview:
osa (GeneID 42130) [DRSC17022] | E2F firefly, rep 1: 66247; Renilla normaliser, rep 1: 4060
CG12075 (GeneID 31815) [DRSC17801] | E2F firefly, rep 1: 7570; Renilla normaliser, rep 1: 924
CG5276 (GeneID 41373) [DRSC15759] | E2F firefly, rep 1: 1.58e5; Renilla normaliser, rep 1: 6847
Prestin (GeneID 39996) [DRSC10507] | E2F firefly, rep 1: 1.20e5; Renilla normaliser, rep 1: 6449
Cpr57A + Obp57d [DRSC06708] | E2F firefly, rep 1: 83170; Renilla normaliser, rep 1: 3428
KrT95D (GeneID 42843) [DRSC16725] | E2F firefly, rep 1: 74998; Renilla normaliser, rep 1: 3825
CG13465 (GeneID 50282) [DRSC10011] | E2F firefly, rep 1: 1.47e5; Renilla normaliser, rep 1: 7200
CG17726 (GeneID 41349) [DRSC15255] | E2F firefly, rep 1: 54259; Renilla normaliser, rep 1: 3517
CG16984 (GeneID 38322) [DRSC08500] | E2F firefly, rep 1: 86308; Renilla normaliser, rep 1: 4722
Rh4 (GeneID 39887) [DRSC11268] | E2F firefly, rep 1: 1.75e5; Renilla normaliser, rep 1: 9327
Kr-h2 (GeneID 33859) [DRSC03356] | E2F firefly, rep 1: 1.43e5; Renilla normaliser, rep 1: 5251
Gr32a (GeneID 34545) [DRSC02400] | E2F firefly, rep 1: 1.58e5; Renilla normaliser, rep 1: 5762
CG9698 (GeneID 43629) [DRSC16539] | E2F firefly, rep 1: 1.16e5; Renilla normaliser, rep 1: 6301
enok (GeneID 37859) [DRSC04096] | E2F firefly, rep 1: 93472; Renilla normaliser, rep 1: 3139
Chd1 (GeneID 33505) [DRSC00745] | E2F firefly, rep 1: 81741; Renilla normaliser, rep 1: 3746
CG42789 (GeneID 10178793) [DRSC13793] | E2F firefly, rep 1: 53513; Renilla normaliser, rep 1: 3296
Mal-A2 (GeneID 35825) [DRSC07460] | E2F firefly, rep 1: 1.31e5; Renilla normaliser, rep 1: 4629
CG9586 (GeneID 34241) [DRSC03270] | E2F firefly, rep 1: 1.46e5; Renilla normaliser, rep 1: 5046
Mcm6 (GeneID 31603) [DRSC18680] | E2F firefly, rep 1: 9309; Renilla normaliser, rep 1: 764
TotA (GeneID 44121) [DRSC13448] | E2F firefly, rep 1: 80075; Renilla normaliser, rep 1: 2583
Tnks (GeneID 43095) [DRSC14154] | E2F firefly, rep 1: 1.31e5; Renilla normaliser, rep 1: 6571
APC4 (GeneID 31835) [DRSC18360] | E2F firefly, rep 1: 7394; Renilla normaliser, rep 1: 796
tll (GeneID 43656) [DRSC17085] | E2F firefly, rep 1: 1.29e5; Renilla normaliser, rep 1: 6375
Jhe (GeneID 36780) [DRSC07174] | E2F firefly, rep 1: 1.36e5; Renilla normaliser, rep 1: 4314
COX4 (GeneID 35279) [DRSC02091] | E2F firefly, rep 1: 84132; Renilla normaliser, rep 1: 3579
CG13795 (GeneID 34049) [DRSC02299] | E2F firefly, rep 1: 1.45e5; Renilla normaliser, rep 1: 4863
wkd (GeneID 41390) [DRSC15777] | E2F firefly, rep 1: 1.39e5; Renilla normaliser, rep 1: 7165
CG17564 (GeneID 35205) [DRSC02626] | E2F firefly, rep 1: 1.08e5; Renilla normaliser, rep 1: 4161
